Holding throughout (type): functional, cell-based
For one assay, the system named is PC-3. The experiment in a line: Cytotoxicity against human PC3 cells after 72 hrs by MTS assay. Particulars: PC-3, 72 h. The essentials: (§1)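 Prostate lines grown in RPMI 1640 with 10% FBS. […] Cells treated 72 h at 10 concentrations, 0.03 nM–1 μM, n = 4. MTS read at 490 nm; IC50 by nonlinear regression. RI = resistant IC50 / parental IC50.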
In general terms: Tetrazolium assays rely on reduction of a dye to a coloured formazan, in cell work by metabolically active cells.

Assay [1] in a line: Cytotoxicity against human PC3-TxR cells after 72 hrs by MTS assay. The gist of the method:
as §1

The next assay has as its system DU-145. The experiment in a line: Cytotoxicity against human DU145 cells after 72 hrs by MTS assay. Particulars: DU-145, 72 h. The essentials: as §1

Structures are written as SMILES.

Take `COc1cc2c(c(OC)c1OC)-c1ccc(OC)c(=O)cc1[C@@H](NC(C)=O)CC2` [COLCHICINE]: the 50% inhibitory concentration (IC50) came out at 8 nM in the assay with PC-3, 28.1 nM in assay [1] and 25.7 nM in the assay on DU-145.

As a reminder, the IC50 is the concentration that gives 50% inhibition. Read a low IC50 as inhibition by little substance.

The record behind these values is ChEMBL document CHEMBL4024804 (J Med Chem, 2018).
